# No constants are given. Whether binding was seen depends on the method and setting. Some entries that bind do so weakly or less than the wild type. Tags and fused reporters may be left off the sequences shown.
# Tests used:
# untagged PNMA2 (human) [1] = biological target: T1, untagged PNMA2 (human) (UniProt Q9UL42); assay: Ni-NTA affinity purification of hybrid capsids, SDS-PAGE
# T1 sequence: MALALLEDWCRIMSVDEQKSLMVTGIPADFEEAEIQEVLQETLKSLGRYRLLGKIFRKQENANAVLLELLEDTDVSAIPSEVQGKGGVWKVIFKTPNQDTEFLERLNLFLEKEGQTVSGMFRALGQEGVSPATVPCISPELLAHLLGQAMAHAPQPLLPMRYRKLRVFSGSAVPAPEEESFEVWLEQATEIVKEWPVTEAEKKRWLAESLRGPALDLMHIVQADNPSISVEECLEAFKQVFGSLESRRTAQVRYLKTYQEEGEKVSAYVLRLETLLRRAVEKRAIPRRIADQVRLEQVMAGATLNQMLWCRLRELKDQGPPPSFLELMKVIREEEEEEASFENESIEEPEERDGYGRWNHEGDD
# untagged PNMA2 (human) [2] = biological target: T1, untagged PNMA2 (human); assay: co-reassembly into hybrid capsids, confirmed by TEM
substance,measurement,setting,value
PNMA2 with N-terminal 6xHis tag (from UniProt Q9UL42 2-364),binding,untagged PNMA2 (human) [1],binds
same,binding,untagged PNMA2 (human) [2],binds
